Where two headings read alike, the source gives them in different places. Structures were worked out from names or drawings and are uncertain.
Assays:
Format in all cases: cell-based
CaV2.2 = CaV2.2 (Homo sapiens, UniProt Q00975); assay: High-throughput CaV2.2/Kir2.3 FLIPR fluorescent assay; settings: read-out: FLIPR data CaV2.2, Fluo-4 FLIPR, closed or inactivated state not stated
Procedure: (§1) Cells were plated in 384-well, clear-bottom, black-walled, poly-D-lysine coated plates (Becton Dickinson, Franklin Lake, N.J.) 2 days prior to use in the FLIPR assay. 100 μL of cells (1.4×10^6 cell/mL) containing doxycyline (Sigma-Aldrich, 1.5 μg/mL; to induce channel expression) were added to each well using a Multidrop (Thermo Scientific, Waltham, Mass.) and were maintained in 5% CO2 incubator at 37° C. On the morning of the assay, cells were transferred to a 5% CO2 incubator at 29° C.
Cells were washed with a wash buffer containing (in mM): 118 NaCl, 18.4 HEPES, 11.7 D-glucose, 2 CaCl2, 0.5 MgSO4, 4.7 KCl, 1.2 KH2PO4, pH adjusted to 7.2 with NaOH. 4.4 μM of the fluorescent indicator dye, Fluo-4 (Invitrogen), prepared in pluronic acid (Sigma-Aldrich), was loaded into the wells and incubated for 45 minutes at 29° C. in 5% CO2. Cells were then rinsed with either a 2 mM KCl closed-state buffer (in mM: 138.5 NaCl, 10 HEPES, 10 D-glucose, 1 CaCl2, and 2 KCl, with the pH adjusted to 7.4 with NaOH) when performing the closed-state assay or 12.5 mM KCl inactivated-state buffer (in mM: 128 NaCl, 10 HEPES, 10 D-glucose, 1 CaCl2, and 12.5 mM KCl, with the pH adjusted to 7.4 with NaOH) when performing the inactivated-state assay.
Concentration-dependent response curves were generated from 5 mM stock solutions prepared in DMSO (Sigma-Aldrich) and diluted in either the 2 mM KCl buffer or 12.5 mM KCl buffer and incubated for 20 minutes at 29° C. in 5% CO2. Calcium entry was evoked with an addition of 130 mM KCl stimulation buffer (in mM: 10.5 NaCl, 10 HEPES, 10 D-glucose, 1 CaCl2, and 130 KCl, with the pH adjusted to 7.4 with NaOH) for both the closed-state or inactivated-state assay. A change in the Fluo-4 fluorescence signal was assessed using FLIPR^TETRA™ instrument (Molecular Devices, Sunnyvale, Calif.) for 3 minutes following the elevation of extracellular KCl using an illumination wavelength of 470-495 nm with emissions recorded at 515-575 nm.
Concentration-dependent response curves were obtained by comparing the fluorescence signal in the presence of compound and fitted with a logistic function (1) to obtain the concentration that inhibited 50% (IC50) of the RLU signal using OriginPro v.7.5 software (OriginLab, Northampton, Mass.).
(§2) To assess the quality of the FLIPR assays the Z-factor (2) was used to quantify the suitability of the assay conditions using the following equation: […]
(§3) Data are expressed as mean and standard deviation (SD).

Sequences of proteins named here, by UniProt entry; tags and fusion partners are left off. Residues count along the entry.
UniProt Q00975, whole entry: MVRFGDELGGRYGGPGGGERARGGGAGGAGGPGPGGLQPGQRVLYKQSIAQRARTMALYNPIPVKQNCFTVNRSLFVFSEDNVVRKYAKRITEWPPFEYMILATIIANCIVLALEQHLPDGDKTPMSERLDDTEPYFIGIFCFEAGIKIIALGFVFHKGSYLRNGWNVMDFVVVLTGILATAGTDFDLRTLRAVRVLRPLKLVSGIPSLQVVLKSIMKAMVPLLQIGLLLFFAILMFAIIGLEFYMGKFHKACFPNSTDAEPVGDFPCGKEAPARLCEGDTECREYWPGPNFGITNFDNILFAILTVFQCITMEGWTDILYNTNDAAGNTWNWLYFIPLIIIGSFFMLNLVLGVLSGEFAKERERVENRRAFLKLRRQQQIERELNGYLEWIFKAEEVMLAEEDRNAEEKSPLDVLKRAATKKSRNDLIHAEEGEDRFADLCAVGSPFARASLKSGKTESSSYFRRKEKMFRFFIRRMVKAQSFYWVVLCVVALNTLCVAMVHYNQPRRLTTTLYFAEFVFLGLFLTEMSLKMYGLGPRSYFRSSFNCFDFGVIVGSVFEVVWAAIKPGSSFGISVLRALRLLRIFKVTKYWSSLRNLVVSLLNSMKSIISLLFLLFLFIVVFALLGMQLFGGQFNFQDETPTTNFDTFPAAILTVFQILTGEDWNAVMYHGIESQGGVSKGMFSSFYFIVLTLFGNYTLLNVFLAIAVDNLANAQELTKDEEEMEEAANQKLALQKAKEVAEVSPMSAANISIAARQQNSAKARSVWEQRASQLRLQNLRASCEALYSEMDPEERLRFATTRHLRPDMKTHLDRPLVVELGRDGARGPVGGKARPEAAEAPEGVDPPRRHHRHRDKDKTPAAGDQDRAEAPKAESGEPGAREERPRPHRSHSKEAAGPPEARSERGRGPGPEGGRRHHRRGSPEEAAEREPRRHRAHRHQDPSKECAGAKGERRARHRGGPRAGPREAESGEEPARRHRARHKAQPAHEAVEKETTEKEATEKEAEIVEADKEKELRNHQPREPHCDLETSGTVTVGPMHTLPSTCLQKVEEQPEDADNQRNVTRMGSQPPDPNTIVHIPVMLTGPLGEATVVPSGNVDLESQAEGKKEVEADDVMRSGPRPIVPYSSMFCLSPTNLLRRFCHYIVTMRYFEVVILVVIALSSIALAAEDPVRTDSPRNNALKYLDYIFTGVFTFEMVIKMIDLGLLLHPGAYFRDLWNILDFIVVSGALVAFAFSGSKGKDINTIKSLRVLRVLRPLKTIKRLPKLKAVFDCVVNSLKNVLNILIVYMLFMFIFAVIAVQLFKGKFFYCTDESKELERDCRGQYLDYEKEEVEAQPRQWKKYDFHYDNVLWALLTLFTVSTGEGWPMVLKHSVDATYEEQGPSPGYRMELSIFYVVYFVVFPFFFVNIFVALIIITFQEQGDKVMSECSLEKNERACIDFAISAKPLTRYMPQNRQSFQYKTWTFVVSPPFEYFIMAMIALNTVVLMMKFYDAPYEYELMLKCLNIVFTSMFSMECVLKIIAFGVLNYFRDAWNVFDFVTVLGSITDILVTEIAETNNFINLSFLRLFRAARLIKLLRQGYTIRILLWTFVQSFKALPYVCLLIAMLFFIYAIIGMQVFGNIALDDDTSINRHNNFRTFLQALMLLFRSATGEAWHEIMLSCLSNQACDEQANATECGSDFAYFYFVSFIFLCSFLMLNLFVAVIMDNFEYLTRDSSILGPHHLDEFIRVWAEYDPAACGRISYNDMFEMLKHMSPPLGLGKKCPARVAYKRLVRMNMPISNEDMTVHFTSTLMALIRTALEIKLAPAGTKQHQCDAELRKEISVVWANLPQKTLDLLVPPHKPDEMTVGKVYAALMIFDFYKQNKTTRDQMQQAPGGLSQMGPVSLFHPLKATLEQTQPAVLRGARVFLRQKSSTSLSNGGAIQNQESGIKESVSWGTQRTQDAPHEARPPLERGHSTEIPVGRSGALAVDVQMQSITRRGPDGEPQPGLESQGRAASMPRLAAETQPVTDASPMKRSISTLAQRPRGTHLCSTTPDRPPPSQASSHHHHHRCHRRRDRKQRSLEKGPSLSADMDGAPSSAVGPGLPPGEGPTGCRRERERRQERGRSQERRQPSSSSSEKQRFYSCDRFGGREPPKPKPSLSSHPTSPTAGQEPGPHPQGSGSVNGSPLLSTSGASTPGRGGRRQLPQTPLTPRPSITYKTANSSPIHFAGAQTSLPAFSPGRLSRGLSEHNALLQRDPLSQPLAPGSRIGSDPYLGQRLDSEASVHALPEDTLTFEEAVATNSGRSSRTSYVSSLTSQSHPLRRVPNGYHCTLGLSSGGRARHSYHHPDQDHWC
UniProt O95180, whole entry: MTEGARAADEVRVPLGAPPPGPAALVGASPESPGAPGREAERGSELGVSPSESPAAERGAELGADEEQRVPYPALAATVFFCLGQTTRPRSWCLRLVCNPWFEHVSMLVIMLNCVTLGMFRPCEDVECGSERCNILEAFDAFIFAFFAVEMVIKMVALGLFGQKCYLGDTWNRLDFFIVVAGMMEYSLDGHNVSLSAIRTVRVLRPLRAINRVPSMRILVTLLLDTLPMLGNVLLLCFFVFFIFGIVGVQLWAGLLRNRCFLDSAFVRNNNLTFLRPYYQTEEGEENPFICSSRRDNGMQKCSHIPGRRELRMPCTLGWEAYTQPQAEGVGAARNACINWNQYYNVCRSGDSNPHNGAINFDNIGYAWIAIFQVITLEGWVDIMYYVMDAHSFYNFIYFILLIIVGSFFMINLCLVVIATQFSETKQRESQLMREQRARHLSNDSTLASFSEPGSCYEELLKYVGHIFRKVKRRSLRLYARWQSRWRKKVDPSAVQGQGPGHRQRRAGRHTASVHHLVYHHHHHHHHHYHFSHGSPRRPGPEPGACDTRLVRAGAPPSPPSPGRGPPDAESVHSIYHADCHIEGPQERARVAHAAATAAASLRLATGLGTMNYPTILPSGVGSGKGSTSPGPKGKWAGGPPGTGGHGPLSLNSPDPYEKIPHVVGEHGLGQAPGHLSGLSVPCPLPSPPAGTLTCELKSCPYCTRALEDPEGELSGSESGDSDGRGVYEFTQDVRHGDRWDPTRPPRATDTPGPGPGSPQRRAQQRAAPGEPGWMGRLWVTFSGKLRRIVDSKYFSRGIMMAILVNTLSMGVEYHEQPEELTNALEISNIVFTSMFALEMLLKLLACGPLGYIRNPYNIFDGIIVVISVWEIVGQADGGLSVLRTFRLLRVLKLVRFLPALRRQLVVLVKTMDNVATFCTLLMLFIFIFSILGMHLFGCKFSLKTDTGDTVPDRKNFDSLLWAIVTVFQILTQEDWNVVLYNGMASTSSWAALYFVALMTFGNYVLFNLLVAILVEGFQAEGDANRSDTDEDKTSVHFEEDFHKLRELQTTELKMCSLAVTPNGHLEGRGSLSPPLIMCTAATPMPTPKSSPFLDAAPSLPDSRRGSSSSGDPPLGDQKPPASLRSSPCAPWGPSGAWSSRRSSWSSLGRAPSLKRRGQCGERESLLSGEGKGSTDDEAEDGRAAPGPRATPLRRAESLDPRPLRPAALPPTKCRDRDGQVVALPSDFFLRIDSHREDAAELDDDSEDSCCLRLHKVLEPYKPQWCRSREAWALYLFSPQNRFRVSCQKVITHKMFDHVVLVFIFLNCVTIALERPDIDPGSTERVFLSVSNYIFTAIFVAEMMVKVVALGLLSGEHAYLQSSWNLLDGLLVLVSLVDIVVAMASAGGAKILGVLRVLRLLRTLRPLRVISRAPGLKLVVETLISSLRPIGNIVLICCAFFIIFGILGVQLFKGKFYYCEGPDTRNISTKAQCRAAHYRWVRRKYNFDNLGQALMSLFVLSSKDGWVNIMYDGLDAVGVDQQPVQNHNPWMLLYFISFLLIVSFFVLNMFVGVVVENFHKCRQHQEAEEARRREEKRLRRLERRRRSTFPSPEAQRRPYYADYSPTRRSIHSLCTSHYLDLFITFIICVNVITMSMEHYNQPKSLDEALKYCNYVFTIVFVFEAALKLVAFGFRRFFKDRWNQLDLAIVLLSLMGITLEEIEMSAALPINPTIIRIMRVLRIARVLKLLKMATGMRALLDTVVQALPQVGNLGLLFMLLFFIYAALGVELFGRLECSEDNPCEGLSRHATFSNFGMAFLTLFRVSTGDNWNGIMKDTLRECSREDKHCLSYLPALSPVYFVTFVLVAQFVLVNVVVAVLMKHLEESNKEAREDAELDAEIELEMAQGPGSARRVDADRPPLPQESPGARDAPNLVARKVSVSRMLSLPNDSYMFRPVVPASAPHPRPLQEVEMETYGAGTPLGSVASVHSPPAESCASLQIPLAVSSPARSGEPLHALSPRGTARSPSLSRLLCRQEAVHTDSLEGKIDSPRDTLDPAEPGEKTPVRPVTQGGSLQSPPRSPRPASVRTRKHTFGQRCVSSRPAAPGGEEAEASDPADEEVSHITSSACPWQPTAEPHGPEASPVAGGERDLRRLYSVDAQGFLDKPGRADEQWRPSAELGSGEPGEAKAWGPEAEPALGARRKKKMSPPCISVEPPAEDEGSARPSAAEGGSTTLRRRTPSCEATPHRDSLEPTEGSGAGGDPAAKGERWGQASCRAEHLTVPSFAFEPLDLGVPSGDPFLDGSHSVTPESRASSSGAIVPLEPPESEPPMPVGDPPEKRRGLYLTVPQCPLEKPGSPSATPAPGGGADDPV
UniProt P54284, whole entry partner: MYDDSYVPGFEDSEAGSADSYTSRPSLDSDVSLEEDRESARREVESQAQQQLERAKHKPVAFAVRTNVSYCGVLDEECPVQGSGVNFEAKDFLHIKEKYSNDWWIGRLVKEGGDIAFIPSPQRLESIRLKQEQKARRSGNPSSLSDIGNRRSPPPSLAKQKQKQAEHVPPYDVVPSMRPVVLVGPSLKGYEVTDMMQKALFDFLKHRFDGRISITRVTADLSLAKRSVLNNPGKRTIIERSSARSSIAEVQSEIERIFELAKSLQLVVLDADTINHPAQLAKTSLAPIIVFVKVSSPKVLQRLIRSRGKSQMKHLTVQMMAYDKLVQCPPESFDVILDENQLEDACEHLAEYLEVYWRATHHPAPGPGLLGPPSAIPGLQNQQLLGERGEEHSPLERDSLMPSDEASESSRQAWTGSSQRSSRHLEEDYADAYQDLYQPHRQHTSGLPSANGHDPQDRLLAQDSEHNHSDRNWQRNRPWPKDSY
UniProt P54289, 25-946 partner limits assumed: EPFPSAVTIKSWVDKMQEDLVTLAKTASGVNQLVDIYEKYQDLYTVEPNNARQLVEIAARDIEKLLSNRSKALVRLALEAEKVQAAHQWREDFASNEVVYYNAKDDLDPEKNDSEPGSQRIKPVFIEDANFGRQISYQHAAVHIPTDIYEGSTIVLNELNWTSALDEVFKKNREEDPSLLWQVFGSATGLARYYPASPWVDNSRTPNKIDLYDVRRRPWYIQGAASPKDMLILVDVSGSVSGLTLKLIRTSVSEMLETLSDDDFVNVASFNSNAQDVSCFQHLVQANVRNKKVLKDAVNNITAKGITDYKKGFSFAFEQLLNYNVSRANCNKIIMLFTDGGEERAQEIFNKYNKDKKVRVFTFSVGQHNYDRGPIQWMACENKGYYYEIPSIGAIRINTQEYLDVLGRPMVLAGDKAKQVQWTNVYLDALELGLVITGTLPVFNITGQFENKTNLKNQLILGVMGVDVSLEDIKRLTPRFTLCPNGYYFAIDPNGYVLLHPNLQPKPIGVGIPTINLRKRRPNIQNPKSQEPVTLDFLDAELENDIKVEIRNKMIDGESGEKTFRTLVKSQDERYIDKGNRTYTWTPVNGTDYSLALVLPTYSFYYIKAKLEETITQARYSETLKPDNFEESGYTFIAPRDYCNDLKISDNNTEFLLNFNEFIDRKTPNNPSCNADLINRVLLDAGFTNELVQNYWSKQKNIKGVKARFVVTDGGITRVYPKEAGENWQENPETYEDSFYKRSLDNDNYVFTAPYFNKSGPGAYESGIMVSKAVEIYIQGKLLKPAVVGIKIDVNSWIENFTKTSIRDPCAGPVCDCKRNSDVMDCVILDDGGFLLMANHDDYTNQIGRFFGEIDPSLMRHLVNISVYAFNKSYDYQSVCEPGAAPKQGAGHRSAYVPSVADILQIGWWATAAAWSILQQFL
UniProt P54289, 947-1103 partner limits assumed: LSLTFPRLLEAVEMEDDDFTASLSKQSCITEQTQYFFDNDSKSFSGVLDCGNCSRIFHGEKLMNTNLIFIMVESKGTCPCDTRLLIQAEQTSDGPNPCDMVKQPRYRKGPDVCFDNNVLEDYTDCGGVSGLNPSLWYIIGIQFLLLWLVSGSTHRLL

CaV3.1 = CaV3.1 (Homo sapiens, UniProt O43497); assay: High-throughput CaV3.1 T-type FLIPR fluorescent assay; settings: read-out: FLIPR data CaV3.1, Fluo-4 FLIPR
Procedure: as §1, with “(2.0×10^6” for “(1.4×10^6”
Cells were washed with a wash buffer containing (in mM): 118 NaCl, 18.4 HEPES, 11.7 D-glucose, 0.05 CaCl2, 0.5 MgSO4, 1 KCl, and 1.2 KH2PO4, with the pH adjusted to 7.2 with NaOH. 4.4 μM of the fluorescent indicator dye, Fluo-4 (Invitrogen), prepared in pluronic acid
(§4) (Sigma-Aldrich), was loaded into the wells and incubated for 45 minutes at 29° C. in 5% CO2. […] A change in the Fluo-4 fluorescence signal was assessed using FLIPR^TETRA™ instrument (Molecular Devices, Sunnyvale, Calif.) for 3 minutes following the elevation of extracellular KCl using an illumination wavelength of 470-495 nm with emissions recorded at 515-575 nm. […]
as §2, §3

CaV3.2 = CaV3.2 (Homo sapiens, UniProt O95180); assay: High-throughput CaV3.2/Kir2.3 T-type FLIPR fluorescent assay; settings: read-out: FLIPR data CaV3.2, Fluo-4 FLIPR, closed or inactivated state not stated
Procedure: as §1, with “µL” for “μL”, “(1.2×10^6” for “(1.4×10^6”
Cells were washed with a wash buffer containing (in mM): 118 NaCl, 18.4 HEPES, 11.7 D-glucose, 2 CaCl2, 0.5 MgSO4, 4.7 KCl, and 1.2 KH2PO4, with the pH adjusted to 7.2 with
as §4, with “NaOH. 4.4 μM of the fluorescent indicator dye Fluo-4 (Invitrogen) prepared in pluronic acid (Sigma-Aldrich)” for “(Sigma-Aldrich),”
as §2, §3

Row | Structure (SMILES) | IC50 (CaV2.2; Table 5) [nM] | IC50 (CaV2.2; Table 4) [nM] | also measured
1 | Cc1ccc(S(C)(=O)=O)cc1C(=O)NCCC(C)(C)S(=O)(=O)c1cccc(C(F)(F)F)c1 | 1180 |  | 
2 | CC(C)(CNC(=O)c1cc(C(F)(F)F)nc(S(C)(=O)=O)c1)S(=O)(=O)c1cccc(C(F)(F)F)c1 | 2230 |  | 
3 | O=C(NCc1ccccc1S(=O)(=O)c1cccc(C(F)(F)F)c1)[C@@H]1C[C@@H](O)CN1 |  | 9490 | 
4 | CC(C)(CCNC(=O)c1ncc(C(F)(F)F)cc1S(C)(=O)=O)S(=O)(=O)c1cc(F)cc(C(F)(F)F)c1 | 1440 |  | 
5 | CC(C)(CNC(=O)c1cc(Cl)nc(Cl)c1)S(=O)(=O)c1cccc(C(F)(F)F)c1 | 1650 |  | IC50 (CaV3.1; Table 5): 8960 nM; IC50 (CaV3.2; Table 5): 3530 nM
6 | Cn1nc(C(F)(F)F)cc1C(=O)NCc1ccc(S(=O)(=O)c2cccc(C(F)(F)F)c2)cn1 |  | 570 | IC50 (CaV3.1; Table 4): 1450 nM; IC50 (CaV3.2; Table 4): 740 nM
